Results are given in words; binding and its absence hold for the method and conditions named. Some binding calls cover weakened binding; strength is not graded here.
Assays:
[1] = molecular target: integrin β1 on HMVEC-LLy cells (human) (UniProt P05556); assay: HMVEC-LLy cell attachment with anti-integrin antibodies, lamstatin 10 µg/ml
[2] = molecular target: integrin α5 on HMVEC-LLy cells (human) (UniProt P08648); assay: as above
[3] = molecular target: integrin β1 on HMVEC-LLy cells (human) (UniProt P05556); assay: HMVEC-LLy cell binding in vitro, integrin identification
[4] = molecular target: integrin α5 on HMVEC-LLy cells (human) (UniProt P08648); assay: as above

Protein sequences, listed by entry. Tags and fused reporters are not part of them. Lines headed by an entry give the natural chain unless they say otherwise; changes in a name come on top. Residues count along the entry.
UniProt P05556: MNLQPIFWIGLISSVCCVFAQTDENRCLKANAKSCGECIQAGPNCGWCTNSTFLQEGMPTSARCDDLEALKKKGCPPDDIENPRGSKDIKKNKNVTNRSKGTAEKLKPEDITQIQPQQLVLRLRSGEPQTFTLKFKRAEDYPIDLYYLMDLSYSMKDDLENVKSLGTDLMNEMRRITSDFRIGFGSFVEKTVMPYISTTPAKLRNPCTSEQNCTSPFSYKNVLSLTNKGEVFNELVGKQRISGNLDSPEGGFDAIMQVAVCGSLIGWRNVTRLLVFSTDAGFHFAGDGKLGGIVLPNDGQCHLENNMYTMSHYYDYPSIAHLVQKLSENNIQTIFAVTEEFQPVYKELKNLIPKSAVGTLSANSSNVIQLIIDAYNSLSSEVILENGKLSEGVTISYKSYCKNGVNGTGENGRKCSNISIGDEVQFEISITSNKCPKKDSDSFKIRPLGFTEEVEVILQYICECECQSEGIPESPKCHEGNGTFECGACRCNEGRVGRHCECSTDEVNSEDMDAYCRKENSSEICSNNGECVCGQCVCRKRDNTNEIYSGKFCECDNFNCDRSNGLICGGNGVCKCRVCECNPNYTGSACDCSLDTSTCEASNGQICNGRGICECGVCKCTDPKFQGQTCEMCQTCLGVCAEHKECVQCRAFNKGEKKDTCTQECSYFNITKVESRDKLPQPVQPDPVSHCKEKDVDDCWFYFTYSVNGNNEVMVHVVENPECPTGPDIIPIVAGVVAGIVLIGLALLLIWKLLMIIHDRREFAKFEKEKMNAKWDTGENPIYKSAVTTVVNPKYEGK
UniProt P08648, residues 42-1049: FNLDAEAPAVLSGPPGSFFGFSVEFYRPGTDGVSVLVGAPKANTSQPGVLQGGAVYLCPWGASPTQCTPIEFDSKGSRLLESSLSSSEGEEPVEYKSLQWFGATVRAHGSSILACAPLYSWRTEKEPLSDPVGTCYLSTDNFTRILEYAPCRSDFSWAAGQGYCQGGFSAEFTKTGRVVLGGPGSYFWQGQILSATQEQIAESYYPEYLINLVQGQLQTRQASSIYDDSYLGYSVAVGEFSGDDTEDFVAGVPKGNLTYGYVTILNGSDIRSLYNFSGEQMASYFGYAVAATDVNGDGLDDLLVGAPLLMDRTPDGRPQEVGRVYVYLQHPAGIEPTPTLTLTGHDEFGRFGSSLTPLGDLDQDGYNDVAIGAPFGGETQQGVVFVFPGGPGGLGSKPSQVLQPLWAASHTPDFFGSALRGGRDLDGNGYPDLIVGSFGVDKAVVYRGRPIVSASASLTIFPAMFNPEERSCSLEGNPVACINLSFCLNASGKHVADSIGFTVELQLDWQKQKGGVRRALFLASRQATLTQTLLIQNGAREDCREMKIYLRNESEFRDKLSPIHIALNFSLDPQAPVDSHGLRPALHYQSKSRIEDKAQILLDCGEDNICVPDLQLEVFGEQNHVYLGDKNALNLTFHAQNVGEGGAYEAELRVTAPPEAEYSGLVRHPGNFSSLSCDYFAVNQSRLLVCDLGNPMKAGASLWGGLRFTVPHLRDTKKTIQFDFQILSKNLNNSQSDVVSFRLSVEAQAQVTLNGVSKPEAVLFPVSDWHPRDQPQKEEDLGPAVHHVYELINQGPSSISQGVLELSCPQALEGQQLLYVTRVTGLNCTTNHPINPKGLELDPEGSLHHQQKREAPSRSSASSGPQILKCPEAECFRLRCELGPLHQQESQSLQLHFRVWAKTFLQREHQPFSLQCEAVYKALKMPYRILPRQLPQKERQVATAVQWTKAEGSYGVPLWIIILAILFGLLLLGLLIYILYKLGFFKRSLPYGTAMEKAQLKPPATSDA
UniProt P29400: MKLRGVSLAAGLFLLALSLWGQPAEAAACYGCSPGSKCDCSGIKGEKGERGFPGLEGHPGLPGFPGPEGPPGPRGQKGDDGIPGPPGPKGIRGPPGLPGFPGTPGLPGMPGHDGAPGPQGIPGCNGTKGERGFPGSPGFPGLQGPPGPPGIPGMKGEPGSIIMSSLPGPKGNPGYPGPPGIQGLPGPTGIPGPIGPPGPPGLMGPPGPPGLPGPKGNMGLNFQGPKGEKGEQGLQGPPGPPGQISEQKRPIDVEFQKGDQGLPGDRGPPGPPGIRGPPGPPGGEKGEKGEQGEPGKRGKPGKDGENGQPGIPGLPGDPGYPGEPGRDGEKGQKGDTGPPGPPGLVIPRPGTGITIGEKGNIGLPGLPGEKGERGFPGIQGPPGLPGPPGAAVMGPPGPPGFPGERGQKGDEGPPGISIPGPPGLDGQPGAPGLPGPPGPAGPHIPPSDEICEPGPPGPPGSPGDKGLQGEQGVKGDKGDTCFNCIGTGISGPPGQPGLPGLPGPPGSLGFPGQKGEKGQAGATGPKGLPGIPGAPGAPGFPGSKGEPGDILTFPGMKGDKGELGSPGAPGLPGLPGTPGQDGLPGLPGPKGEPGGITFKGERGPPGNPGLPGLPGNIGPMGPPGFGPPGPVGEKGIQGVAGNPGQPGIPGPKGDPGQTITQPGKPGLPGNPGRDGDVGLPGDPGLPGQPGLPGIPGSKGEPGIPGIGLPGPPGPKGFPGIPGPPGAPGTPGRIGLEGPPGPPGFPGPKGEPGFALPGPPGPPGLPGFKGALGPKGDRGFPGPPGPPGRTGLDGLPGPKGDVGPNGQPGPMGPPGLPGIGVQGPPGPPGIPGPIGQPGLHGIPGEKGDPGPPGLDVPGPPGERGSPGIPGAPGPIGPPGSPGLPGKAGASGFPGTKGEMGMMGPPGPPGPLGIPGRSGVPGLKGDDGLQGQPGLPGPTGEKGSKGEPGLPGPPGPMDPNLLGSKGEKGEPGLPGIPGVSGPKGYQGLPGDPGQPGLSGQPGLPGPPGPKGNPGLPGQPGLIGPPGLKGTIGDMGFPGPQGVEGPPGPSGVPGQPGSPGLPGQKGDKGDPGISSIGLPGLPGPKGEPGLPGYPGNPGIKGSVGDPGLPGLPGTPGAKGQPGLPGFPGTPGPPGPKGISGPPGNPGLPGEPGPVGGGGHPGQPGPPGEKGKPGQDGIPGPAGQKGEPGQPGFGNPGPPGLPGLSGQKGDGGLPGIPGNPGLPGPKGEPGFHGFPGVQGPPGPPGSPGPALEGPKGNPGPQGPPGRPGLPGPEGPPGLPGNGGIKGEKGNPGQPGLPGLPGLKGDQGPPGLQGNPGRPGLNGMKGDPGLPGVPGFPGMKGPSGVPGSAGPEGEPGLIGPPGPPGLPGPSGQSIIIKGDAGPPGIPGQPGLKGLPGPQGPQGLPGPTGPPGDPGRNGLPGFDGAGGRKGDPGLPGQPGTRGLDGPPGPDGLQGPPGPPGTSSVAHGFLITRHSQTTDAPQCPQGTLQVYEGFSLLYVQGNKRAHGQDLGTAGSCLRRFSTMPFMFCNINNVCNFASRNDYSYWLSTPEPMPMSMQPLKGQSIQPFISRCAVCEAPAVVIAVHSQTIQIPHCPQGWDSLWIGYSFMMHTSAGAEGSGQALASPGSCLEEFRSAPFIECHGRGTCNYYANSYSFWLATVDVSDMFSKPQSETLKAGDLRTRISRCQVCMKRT
UniProt Q01955: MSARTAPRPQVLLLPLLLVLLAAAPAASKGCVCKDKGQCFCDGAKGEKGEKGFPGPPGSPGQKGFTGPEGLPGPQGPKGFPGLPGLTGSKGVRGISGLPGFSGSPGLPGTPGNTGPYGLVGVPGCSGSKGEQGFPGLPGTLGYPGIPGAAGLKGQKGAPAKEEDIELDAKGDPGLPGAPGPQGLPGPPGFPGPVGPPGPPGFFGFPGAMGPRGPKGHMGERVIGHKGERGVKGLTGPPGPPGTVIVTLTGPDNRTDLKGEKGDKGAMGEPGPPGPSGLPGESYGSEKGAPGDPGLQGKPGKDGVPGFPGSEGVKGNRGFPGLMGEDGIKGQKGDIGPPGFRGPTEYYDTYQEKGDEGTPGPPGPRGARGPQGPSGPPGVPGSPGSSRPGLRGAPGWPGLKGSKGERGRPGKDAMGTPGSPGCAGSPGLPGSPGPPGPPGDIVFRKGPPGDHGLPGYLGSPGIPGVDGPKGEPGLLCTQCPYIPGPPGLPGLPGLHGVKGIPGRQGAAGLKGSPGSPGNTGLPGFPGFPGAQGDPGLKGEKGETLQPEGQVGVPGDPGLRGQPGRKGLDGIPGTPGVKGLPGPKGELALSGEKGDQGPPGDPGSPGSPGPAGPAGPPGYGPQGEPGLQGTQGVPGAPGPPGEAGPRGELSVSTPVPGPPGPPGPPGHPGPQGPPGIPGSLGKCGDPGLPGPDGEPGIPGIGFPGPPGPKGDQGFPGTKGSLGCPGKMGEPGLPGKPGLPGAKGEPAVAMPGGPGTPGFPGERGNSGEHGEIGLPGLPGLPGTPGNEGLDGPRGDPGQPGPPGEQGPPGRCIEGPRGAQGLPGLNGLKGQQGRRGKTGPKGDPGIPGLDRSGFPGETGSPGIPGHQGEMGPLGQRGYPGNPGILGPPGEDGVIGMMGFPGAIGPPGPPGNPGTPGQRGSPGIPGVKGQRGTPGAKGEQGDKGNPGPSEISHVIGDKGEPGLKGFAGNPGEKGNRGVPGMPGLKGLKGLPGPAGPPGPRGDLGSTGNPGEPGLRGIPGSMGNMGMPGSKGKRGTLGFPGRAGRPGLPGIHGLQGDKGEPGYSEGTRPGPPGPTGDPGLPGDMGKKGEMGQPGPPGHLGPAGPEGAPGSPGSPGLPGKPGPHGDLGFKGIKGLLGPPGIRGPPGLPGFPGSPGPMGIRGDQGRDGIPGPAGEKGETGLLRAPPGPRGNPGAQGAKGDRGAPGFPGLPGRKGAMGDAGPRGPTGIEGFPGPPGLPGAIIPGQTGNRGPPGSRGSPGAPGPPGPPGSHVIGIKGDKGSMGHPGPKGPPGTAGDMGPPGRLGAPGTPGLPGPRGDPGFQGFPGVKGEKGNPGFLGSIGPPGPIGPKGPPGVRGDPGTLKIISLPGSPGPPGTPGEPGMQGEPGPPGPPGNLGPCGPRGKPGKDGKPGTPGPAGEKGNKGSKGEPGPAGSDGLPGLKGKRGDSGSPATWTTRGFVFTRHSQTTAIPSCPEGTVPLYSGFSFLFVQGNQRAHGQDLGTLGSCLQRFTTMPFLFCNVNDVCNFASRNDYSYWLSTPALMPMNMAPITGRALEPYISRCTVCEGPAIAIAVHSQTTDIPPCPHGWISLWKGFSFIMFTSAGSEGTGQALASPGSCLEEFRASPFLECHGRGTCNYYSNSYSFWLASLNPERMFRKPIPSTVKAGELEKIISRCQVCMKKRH

Measured: binding

lamstatin (NC1 domain of the α5 chain of collagen type IV) (from UniProt P29400 1461-1685) (ligand)
binds: all assays above

tumstatin (NC1 domain of the α3 chain of collagen type IV) (from UniProt Q01955 1445-1670) (ligand)
binds: [3] | [4]

From US20120190612A1, “METHODS OF TREATMENT” (CRC FOR ASTHMA AND AIRWAYS LTD., priority 2009, published 2012)
